According to article PMC7819943, “Rice protein-binding microarrays: a tool to detect cis-acting elements near promoter regions in rice”:
Some of the results follow.

target: T1, OsSMF1 (Oryza sativa, UniProt Q6ZLB0 1-436); assay: protein-binding microarray (RPBM); PBS, 2% BSA, 51.3 ng/ul salmon testes DNA, 50 uM zinc acetate, 200 nM TF, 25 C, 1 h; high values mean tight binding; settings: protein: recombinant; tags: N-terminal polyhistidine and DsRed monomer fusion (pET32a); chain copies: 2; label: CyDye5-dUTP incorporated in the synthesized complementary strand; 3' TTTTT single-stranded linker to array surface; dsDNA, one strand shown
T1 sequence: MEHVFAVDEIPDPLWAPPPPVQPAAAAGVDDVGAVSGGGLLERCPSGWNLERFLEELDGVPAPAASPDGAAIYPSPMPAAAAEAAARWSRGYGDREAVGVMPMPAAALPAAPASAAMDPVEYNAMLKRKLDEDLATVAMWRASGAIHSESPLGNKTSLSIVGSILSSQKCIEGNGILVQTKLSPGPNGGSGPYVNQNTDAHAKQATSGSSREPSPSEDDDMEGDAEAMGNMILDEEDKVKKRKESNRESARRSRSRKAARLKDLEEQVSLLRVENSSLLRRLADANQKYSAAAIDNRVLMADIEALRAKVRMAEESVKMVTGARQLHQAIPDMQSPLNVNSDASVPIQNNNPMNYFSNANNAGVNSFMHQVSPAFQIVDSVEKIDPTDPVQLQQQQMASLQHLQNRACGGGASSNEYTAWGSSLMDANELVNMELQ
Summary of the method: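 Binding signal is reported as fluorescence intensity per feature (arbitrary units) from an Axon 4000B scanner. Incubation used 200 nM of each Ni–NTA-purified, N-terminally polyhistidine- and DsRed-fused transcription factor from E. coli BL21-CodonPlus on a double-stranded custom Agilent array for 1 h at 25 °C, with 50 µM zinc acetate in the buffer, followed by washing.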

Sequence | binding signal
GCCGCGACGGCGCCGGCCTCCGCCGCGCCGCATTCTTCCTCGGAGTCACCTAGTGCAG | 3720 fluorescence intensity (a.u.)
ATTGGATGAGGTGACATATACAGCACTCATATCAGGGCTGCGGAGTCACCTAGTGCAG | 3150 fluorescence intensity (a.u.)
CTCCCCGCCGGCGTGGCGGGGCGCCGCCTTCCATCGGTGTCGGAGTCACCTAGTGCAG | 38600 fluorescence intensity (a.u.)
AACATAATGTTTTAACTTAAACCTTAATAATGAAATTTCTCGGAGTCACCTAGTGCAG | 3670 fluorescence intensity (a.u.)
TACTTAGTAGCTAGGAGCTATATTGGTTGGAAAGGAGCGCCGGAGTCACCTAGTGCAG | 51200 fluorescence intensity (a.u.)
ATCAGCTAAAACCAGGGACAATACTGTCAATGGACCTTATCGGAGTCACCTAGTGCAG | 3330 fluorescence intensity (a.u.)
TGTCAATCGAGTAAACAACCGGTCTCAACAATCCACGTAACGGAGTCACCTAGTGCAG | 23600 fluorescence intensity (a.u.)
TTATTAGTGGAGTTATAGTCCAACACTCAAACGATCACCACGGAGTCACCTAGTGCAG | 3140 fluorescence intensity (a.u.)
CTACGATCAGAAACAGCGGGGCGGGTTGGGAGGGAGTCCACGGAGTCACCTAGTGCAG | 3620 fluorescence intensity (a.u.)
AAAACACCAGTGTGTGTCAATGACATGCCATACCCGACATCGGAGTCACCTAGTGCAG | 4460 fluorescence intensity (a.u.)
AGTTTATTAATCATGTGCTAATGACTCACCTTGTTTTGCACGGAGTCACCTAGTGCAG | 12300 fluorescence intensity (a.u.)
ACGAAGCATCGTTTCCTGTGGCACACGCCTCACGGCGTATCGGAGTCACCTAGTGCAG | 3830 fluorescence intensity (a.u.)
ACGATTCGGTCACTTCCTCTGACTCAACCGCTCATGTTGACGGAGTCACCTAGTGCAG | 4320 fluorescence intensity (a.u.)
TGGCTCGCTGCCGTGGCGCGGGCGGAGCCTTAGGTTGTGCCGGAGTCACCTAGTGCAG | 5400 fluorescence intensity (a.u.)
GCAAATGCAACGTAGCAGCTAGCTGTAAGCACGCACTTGGCGGAGTCACCTAGTGCAG | 3180 fluorescence intensity (a.u.)
ATAAATCCGCCCAGCCCCGCCGCGCCATGCCCGCGAGACCCGGAGTCACCTAGTGCAG | 14600 fluorescence intensity (a.u.)
GGCTGGTGCTGACCTGCTGATGCAATCGCCGGCCCTGCCACGGAGTCACCTAGTGCAG | 7410 fluorescence intensity (a.u.)
ACTTATGCTCCAATTCTTATGAGATGCTTGTGCATGGGAACGGAGTCACCTAGTGCAG | 27000 fluorescence intensity (a.u.)
AGTGTGTAGGGATGTTGAGATTTCTTTTGATGTTGTTTTACGGAGTCACCTAGTGCAG | 3350 fluorescence intensity (a.u.)
ACCAAGCCGATGTAAATGACCTGTTTGAGTGAACTTAAGACGGAGTCACCTAGTGCAG | 3780 fluorescence intensity (a.u.)
GAACGGAGGAGGGAGGGAGCGGCGCGCGGCCGTGGCGGTGCGGAGTCACCTAGTGCAG | 12100 fluorescence intensity (a.u.)

Sequence | binding signal
CAAGATCTTGTAATGTGTGTGGTCATAATTTAGCTCAATCCGGAGTCACCTAGTGCAG | 8930 fluorescence intensity (a.u.)
ACACATCGGAAATTATCTGTAGAAGCTCTAAGCATATATACGGAGTCACCTAGTGCAG | 3660 fluorescence intensity (a.u.)
GTCCTCAGATATTTTGTTCGGTGTTTGAGGAACATGATCTCGGAGTCACCTAGTGCAG | 23600 fluorescence intensity (a.u.)
TATTTTAAGTCAAACATGCTTATCTGTAACTATTAATTTTCGGAGTCACCTAGTGCAG | 3300 fluorescence intensity (a.u.)
TTTGTATACCATGAATCCGATCAACCCAAATATATTTTGTCGGAGTCACCTAGTGCAG | 3670 fluorescence intensity (a.u.)
GCCTTGAGCATCACCGTCCTCAGCATCCTCGCGCTGTCAACGGAGTCACCTAGTGCAG | 3420 fluorescence intensity (a.u.)
TCCTATTTTCCGCATTCTCTGCCCTACTTCAAAATCTGGGCGGAGTCACCTAGTGCAG | 3240 fluorescence intensity (a.u.)
AATTGGAAGTCTTAGTCAAATACTGCTCCCTCCATTTCAACGGAGTCACCTAGTGCAG | 3280 fluorescence intensity (a.u.)
TTCAAAATTTCCAACGTTTATGTTGAAAGTGCACGTTCGTCGGAGTCACCTAGTGCAG | 3280 fluorescence intensity (a.u.)
CAGGGGCAACGGCGGCGGTCGCTGACGCCGTCGCGGTCTTCGGAGTCACCTAGTGCAG | 3950 fluorescence intensity (a.u.)
GACATGACCCCTCGATCGTCCGCCACGTGTCGCGCGCCATCGGAGTCACCTAGTGCAG | 31100 fluorescence intensity (a.u.)
ACTATAGATAATAATTTCTAGTGGGTGATGACGTGGCACACGGAGTCACCTAGTGCAG | 31900 fluorescence intensity (a.u.)
TGGTTGACTGGCCCACGTGTCGGTGACGGGGAGTTGCCTGCGGAGTCACCTAGTGCAG | 16200 fluorescence intensity (a.u.)
AATTCGAATTTTCGGATAACAGATCCTTCTAATCCAGTCTCGGAGTCACCTAGTGCAG | 3240 fluorescence intensity (a.u.)
GGATGCCAGCTGCAGATGCGACGCCCACGTACTACGTCTGCGGAGTCACCTAGTGCAG | 5600 fluorescence intensity (a.u.)
ACGGTCGCCCGGTCAGCGCGCACACACACGTCTTACGTCTCGGAGTCACCTAGTGCAG | 3590 fluorescence intensity (a.u.)
CTAGCTACTTCTATCCTCCACCTCCTAAATGATCGATTTGCGGAGTCACCTAGTGCAG | 3740 fluorescence intensity (a.u.)
CTTTTGTTGATTCTTGTCCATGATCCCAAGTCATCACTTTCGGAGTCACCTAGTGCAG | 4160 fluorescence intensity (a.u.)
AGCCGGGACCTCGCCGCCGTCACCTTCTCCCCGCACACTCCGGAGTCACCTAGTGCAG | 4920 fluorescence intensity (a.u.)
CGGTCGATGCGGGCCGAAGCGGCGTCCACGCGAGCACAACCGGAGTCACCTAGTGCAG | 3170 fluorescence intensity (a.u.)
CCTCCGCTTCCCTCTTCTCACGTCATGATAGCCGCCGAGGCGGAGTCACCTAGTGCAG | 15700 fluorescence intensity (a.u.)

A section from further up, as a working copy:
Sequence | binding signal
ACTATAGATAATAATTTCTAGTGGGTGATGACGTGGCACACGGAGTCACCTAGTGCAG | 31900 fluorescence intensity (a.u.)
TGGTTGACTGGCCCACGTGTCGGTGACGGGGAGTTGCCTGCGGAGTCACCTAGTGCAG | 16200 fluorescence intensity (a.u.)
AATTCGAATTTTCGGATAACAGATCCTTCTAATCCAGTCTCGGAGTCACCTAGTGCAG | 3240 fluorescence intensity (a.u.)
GGATGCCAGCTGCAGATGCGACGCCCACGTACTACGTCTGCGGAGTCACCTAGTGCAG | 5600 fluorescence intensity (a.u.)
ACGGTCGCCCGGTCAGCGCGCACACACACGTCTTACGTCTCGGAGTCACCTAGTGCAG | 3590 fluorescence intensity (a.u.)
CTAGCTACTTCTATCCTCCACCTCCTAAATGATCGATTTGCGGAGTCACCTAGTGCAG | 3740 fluorescence intensity (a.u.)
CTTTTGTTGATTCTTGTCCATGATCCCAAGTCATCACTTTCGGAGTCACCTAGTGCAG | 4160 fluorescence intensity (a.u.)
AGCCGGGACCTCGCCGCCGTCACCTTCTCCCCGCACACTCCGGAGTCACCTAGTGCAG | 4920 fluorescence intensity (a.u.)
